Not every detail of the peptide structures is certain; ends, links or a residue may be inferred.
Tested on: estrous in female Sprague-Dawley rats
Assay: Estrous suppression in rats after a single subcutaneous injection of microcapsules (daily vaginal smear analysis)
Format: in vivo

With CC(C)C[C@H](NC(=O)[C@@H](Cc1ccc2ccccc2c1)NC(=O)[C@H](Cc1ccc(O)cc1)NC(=O)[C@H](CO)NC(=O)[C@H](Cc1c[nH]c2ccccc12)NC(=O)[C@H](Cc1c[nH]cn1)NC(=O)[C@@H]1CCC(=O)N1)C(=O)N[C@@H](CCCNC(=N)N)C(=O)N1CCC[C@H]1C(=O)NCC(N)=O [D-Nal(2)^6 LH-RH, (pyro)Glu-His-Trp-Ser-Tyr-3-(2-naphthyl)-D-alanyl-Leu-Arg-Pro-Gly-NH2] the “Rats showing estrous at day 25” value (day 25 post dosing, single 300 μg s.c. dose of the microcapsules, 10 rats) was 40%, the “Day by which estrous was observed in all animals” value (single 300 μg s.c. dose of the microcapsules, 10 rats) was no more than 27 days and the “All rats showed estrous suppression through day (post dosing)” value (single 300 μg s.c. dose, 1.4% peptide in 50:50 poly(lactide-co-glycolide) microcapsules, 10-40 μm, 10 mature female Sprague-Dawley rats) was 24 days.

Source: patent US4675189A, “Microencapsulation of water soluble active polypeptides” (Syntex (U.S.A.) Inc., priority 1985, dated 1987)
